Data: US20160291016A1
These are yes or no findings as the source states them, for the method shown. In cells and extracts the contact can be indirect. Binding can be weak; no strength is given.

By UniProt entry, the sequences of proteins in these tests, tags left out. Where a name states a change or a piece, a line headed by the entry shows the natural chain unless it says otherwise. Residues count along the entry.
UniProt P11688: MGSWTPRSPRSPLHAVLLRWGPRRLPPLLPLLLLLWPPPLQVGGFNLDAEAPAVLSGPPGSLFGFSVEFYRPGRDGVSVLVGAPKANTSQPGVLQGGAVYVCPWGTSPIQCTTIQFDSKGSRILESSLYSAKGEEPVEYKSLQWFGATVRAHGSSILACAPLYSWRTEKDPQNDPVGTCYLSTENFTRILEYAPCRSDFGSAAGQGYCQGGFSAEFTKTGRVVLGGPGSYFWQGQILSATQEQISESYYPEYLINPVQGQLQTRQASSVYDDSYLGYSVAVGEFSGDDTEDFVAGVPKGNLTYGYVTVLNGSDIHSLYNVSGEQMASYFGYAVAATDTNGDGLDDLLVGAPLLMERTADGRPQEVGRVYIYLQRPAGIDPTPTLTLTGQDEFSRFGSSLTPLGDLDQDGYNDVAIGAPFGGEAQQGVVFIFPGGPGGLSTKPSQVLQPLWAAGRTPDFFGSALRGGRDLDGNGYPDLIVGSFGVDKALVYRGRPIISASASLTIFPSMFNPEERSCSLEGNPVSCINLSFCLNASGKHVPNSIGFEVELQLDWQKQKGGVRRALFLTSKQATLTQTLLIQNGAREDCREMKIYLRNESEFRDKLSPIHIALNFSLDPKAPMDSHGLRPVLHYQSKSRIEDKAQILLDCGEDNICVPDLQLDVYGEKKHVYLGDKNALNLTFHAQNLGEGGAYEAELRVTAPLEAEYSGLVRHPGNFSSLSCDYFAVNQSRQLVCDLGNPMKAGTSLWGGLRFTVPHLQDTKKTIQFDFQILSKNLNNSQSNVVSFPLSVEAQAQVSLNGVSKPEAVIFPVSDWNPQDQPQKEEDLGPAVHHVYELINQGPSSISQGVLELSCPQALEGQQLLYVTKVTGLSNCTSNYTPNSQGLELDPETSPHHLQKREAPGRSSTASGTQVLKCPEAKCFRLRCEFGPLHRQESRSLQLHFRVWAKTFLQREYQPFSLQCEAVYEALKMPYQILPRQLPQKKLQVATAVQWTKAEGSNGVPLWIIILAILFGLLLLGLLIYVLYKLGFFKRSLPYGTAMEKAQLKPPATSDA
UniProt O54890: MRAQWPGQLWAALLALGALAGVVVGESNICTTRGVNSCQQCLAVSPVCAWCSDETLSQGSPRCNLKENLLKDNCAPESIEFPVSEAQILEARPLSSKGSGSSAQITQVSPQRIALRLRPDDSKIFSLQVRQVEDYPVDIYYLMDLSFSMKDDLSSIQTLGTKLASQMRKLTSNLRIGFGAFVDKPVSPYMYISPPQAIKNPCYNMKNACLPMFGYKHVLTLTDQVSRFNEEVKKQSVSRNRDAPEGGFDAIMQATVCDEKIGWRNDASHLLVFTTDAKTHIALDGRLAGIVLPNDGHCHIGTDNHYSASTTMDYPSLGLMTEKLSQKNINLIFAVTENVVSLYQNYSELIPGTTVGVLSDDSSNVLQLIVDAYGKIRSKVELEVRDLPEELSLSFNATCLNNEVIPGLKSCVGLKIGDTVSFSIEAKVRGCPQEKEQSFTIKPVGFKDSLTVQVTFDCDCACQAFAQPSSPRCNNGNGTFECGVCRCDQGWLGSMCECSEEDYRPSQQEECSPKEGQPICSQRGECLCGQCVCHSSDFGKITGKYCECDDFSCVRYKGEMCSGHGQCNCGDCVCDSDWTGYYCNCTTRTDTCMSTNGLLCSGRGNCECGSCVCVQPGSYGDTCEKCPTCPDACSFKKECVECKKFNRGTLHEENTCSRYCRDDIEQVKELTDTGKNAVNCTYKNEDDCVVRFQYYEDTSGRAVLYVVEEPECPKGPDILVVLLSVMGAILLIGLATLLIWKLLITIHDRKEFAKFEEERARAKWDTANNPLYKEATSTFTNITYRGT
UniProt O70309: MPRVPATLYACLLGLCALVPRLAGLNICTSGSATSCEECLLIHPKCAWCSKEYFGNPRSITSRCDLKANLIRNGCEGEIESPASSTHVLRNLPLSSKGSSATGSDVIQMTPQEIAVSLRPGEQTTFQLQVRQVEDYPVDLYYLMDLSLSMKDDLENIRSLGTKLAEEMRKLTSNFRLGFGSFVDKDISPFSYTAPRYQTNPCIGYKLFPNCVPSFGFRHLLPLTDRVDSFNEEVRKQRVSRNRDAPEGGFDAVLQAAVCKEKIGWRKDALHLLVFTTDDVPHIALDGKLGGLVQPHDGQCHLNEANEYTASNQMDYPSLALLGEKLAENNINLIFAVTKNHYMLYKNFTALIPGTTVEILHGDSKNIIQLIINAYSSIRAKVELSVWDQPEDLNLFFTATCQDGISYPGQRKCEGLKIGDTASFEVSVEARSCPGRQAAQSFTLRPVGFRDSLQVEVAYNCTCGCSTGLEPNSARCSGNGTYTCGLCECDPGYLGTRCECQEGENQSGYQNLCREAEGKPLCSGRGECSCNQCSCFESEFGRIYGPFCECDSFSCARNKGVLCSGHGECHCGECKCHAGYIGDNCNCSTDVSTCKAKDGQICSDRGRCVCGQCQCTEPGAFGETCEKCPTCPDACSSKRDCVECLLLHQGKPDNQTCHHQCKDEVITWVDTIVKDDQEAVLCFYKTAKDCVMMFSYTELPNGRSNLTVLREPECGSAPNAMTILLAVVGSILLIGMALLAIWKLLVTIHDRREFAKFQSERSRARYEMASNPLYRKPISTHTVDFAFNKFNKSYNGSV
UniProt P09055: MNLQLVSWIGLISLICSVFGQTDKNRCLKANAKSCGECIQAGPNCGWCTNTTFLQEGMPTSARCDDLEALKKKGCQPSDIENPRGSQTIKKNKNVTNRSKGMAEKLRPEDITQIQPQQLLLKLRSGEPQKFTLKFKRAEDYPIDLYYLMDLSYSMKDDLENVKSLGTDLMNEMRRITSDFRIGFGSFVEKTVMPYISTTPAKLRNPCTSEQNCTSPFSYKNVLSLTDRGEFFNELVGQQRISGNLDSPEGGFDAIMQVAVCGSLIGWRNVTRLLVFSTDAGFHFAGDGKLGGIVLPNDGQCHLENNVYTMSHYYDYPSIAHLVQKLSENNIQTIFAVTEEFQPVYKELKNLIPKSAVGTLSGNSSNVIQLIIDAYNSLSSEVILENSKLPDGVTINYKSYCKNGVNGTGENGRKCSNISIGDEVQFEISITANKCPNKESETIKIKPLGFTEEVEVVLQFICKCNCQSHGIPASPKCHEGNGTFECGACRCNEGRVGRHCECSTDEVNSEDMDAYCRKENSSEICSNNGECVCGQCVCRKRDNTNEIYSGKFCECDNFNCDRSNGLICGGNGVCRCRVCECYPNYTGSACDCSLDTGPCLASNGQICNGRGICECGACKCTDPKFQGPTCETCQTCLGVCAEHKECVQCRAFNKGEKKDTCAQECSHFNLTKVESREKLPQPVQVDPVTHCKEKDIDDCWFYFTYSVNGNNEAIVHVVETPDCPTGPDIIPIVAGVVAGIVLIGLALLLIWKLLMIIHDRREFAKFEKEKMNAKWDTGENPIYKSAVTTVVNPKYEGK
UniProt P43406: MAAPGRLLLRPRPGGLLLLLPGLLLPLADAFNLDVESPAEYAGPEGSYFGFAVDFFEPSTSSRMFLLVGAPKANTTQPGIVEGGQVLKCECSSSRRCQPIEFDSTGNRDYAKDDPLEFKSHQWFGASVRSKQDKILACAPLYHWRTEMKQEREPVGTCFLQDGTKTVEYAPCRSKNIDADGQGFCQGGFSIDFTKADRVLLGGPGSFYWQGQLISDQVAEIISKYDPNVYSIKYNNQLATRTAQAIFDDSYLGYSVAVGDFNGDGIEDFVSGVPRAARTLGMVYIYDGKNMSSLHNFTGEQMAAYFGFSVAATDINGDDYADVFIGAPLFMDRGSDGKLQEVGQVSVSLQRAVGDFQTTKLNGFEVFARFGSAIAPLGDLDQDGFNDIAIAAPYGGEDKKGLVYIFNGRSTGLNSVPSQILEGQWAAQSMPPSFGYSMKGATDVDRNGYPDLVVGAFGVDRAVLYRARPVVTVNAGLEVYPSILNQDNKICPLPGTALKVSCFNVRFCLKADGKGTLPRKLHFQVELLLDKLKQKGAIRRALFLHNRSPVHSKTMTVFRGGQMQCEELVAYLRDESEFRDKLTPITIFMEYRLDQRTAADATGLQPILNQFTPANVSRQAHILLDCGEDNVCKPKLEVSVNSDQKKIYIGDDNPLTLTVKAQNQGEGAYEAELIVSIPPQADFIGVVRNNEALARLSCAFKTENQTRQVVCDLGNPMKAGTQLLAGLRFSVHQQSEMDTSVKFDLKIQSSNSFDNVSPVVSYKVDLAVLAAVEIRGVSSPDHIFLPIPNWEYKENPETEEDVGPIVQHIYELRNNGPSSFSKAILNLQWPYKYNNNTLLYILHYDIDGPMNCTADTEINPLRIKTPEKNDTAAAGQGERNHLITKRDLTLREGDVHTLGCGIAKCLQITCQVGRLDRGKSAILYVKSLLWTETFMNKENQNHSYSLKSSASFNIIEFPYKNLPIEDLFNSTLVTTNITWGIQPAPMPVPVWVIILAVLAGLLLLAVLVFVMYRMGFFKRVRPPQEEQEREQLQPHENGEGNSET
UniProt P10923, residues 17-294: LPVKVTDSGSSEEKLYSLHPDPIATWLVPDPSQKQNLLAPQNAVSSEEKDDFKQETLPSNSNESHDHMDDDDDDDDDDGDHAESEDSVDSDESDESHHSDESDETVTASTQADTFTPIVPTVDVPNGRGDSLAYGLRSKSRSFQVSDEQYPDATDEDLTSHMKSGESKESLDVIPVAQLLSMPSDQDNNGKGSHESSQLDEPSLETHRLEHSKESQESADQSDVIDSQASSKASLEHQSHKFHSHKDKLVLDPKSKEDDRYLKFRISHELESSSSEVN

What was measured:
[1] = biological target: integrin α5 (OPN receptor subunit) of mouse osteoblasts (mouse) (UniProt P11688); test: co-immunoprecipitation from mouse osteoblast lysates with receptor antibody, Western blot for OPN
[2] = biological target: integrin β3 (OPN receptor subunit) of mouse osteoblasts (mouse) (UniProt O54890); test: as above
[3] = biological target: integrin β5 (OPN receptor subunit) of mouse osteoblasts (mouse) (UniProt O70309); test: as above
[4] = biological target: integrin β1 (OPN receptor subunit) of mouse osteoblasts (mouse) (UniProt P09055); test: as above
[5] = biological target: integrin αv (OPN receptor subunit) of mouse osteoblasts (mouse) (UniProt P43406); test: as above
[6] = biological target: integrin α5 (OPN receptor subunit) of mouse osteoblasts (mouse) (UniProt P11688); test: co-immunoprecipitation from mouse osteoblast lysates with receptor subunit antibody, Western blot for OPN (FIG. 5C)
[7] = biological target: integrin β3 (OPN receptor subunit) of mouse osteoblasts (mouse) (UniProt O54890); test: as above
[8] = biological target: integrin β5 (OPN receptor subunit) of mouse osteoblasts (mouse) (UniProt O70309); test: as above
[9] = biological target: integrin β1 (OPN receptor subunit) of mouse osteoblasts (mouse) (UniProt P09055); test: as above
[10] = biological target: integrin αv (OPN receptor subunit) of mouse osteoblasts (mouse) (UniProt P43406); test: as above

Measured: binding

osteopontin (OPN), endogenous, in lysates of mouse osteoblasts (from UniProt P10923 17-294) (ligand)
binds: all assays above
